Publication PMC9843824 (Neuropharmacology, 2022)

Key:
physchem = assay type: physicochemical
in vitro = in vitro ADME; settings: rat, plasma
[1] = rat, in vivo; cited from earlier work

For `Nc1nc2ccc(OC(F)(F)F)cc2s1` [Riluzole, reference compound], the logP (physchem) is given as 3.95, the fraction unbound (in vitro) is given as 0.02 and the “Brain:plasma ratio” value [1] is given as 1.
